Experimental data: paper PMC10761072, “Post-transcriptional capping generates coenzyme A-linked RNA” (RNA Biology, 2023)
The exact form of at least one protein or probe is not confirmed.

Sequences of proteins named here, by UniProt entry; tags and fusion partners are left off. A change or cut given only in a name is not applied to a line headed by its entry.
UniProt P0A6I6: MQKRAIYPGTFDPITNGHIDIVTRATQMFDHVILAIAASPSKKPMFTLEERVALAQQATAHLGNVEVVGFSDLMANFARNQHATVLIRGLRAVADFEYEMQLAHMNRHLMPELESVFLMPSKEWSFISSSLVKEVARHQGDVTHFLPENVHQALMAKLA

Molecular target: PPAT (phosphopantetheine adenylyltransferase, CoaD) (Escherichia coli) (UniProt P0A6I6)
Assay: filter binding
Settings: 20 mM Tris pH 7.5, 100 mM NaCl, 10 mM KCl, 1 mM MgCl2, 37 C, 15 min, trace refolded radiolabelled RNA, nitrocellulose filters, recombinant protein, label: 3'-end 32P-dC extension

AGGACCAGAGCAGACGAUUCGUCACACGUCCUGCUCUCGGCUGGAAACACGUAAUCAUCAUCGAGCUGGCAGUCGCAAAAAACCCCGCUUCGGCGGGGUUUUUUCGC [D7* RNA]
binding result (PPAT titration, no significant difference from D2*): binds

AGGACCAGUGCGAAAGCACACA [D7 5'OH RNA]
binding result (1 or 3 uM PPAT, binding not reduced vs D7, 5'-OH instead of 5' triphosphate): binds

AGGAGCAGACGAUUCGUCACACGUCCUGCUCUCGGCUGGAAACUACUCAUCAUCAUCGAGCUGGCAGUCGCAAAAAACCCCGCUUCGGCGGGGUUUUUUCGC [D2* RNA]
binding result (PPAT titration, no significant difference from D7*): binds
